# Experimental data from PMC12165809.
# The chains behind the UniProt entries cited, without tags or fusion partners.
# UniProt Q15418: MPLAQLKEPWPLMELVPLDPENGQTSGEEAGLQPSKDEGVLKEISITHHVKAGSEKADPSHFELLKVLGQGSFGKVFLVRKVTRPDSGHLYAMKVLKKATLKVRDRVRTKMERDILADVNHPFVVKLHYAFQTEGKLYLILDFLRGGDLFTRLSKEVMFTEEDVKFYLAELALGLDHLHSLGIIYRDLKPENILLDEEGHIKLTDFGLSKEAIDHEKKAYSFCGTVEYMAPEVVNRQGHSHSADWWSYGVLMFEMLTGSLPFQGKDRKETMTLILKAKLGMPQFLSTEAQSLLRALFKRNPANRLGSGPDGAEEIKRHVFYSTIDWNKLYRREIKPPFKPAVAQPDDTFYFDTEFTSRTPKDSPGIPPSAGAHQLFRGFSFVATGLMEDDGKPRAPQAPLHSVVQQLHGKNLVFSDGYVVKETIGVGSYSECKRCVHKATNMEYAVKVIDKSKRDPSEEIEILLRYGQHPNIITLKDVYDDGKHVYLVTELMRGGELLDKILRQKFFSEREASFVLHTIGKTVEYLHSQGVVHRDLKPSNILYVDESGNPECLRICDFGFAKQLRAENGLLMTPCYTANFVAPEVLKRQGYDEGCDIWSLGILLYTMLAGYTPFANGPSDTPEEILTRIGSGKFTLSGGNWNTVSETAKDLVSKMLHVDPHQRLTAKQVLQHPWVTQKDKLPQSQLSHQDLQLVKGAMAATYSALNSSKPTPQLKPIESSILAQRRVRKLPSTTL
# No constants are given. Whether binding was seen depends on the method and setting. For some of these results: In cells and extracts the contact can be indirect. Some binding calls cover weakened binding; strength is not graded here. For some of these results: Tags and fused reporters may be left off the sequences shown.
# Experiments:
# HA-Flag TRIM28 = HA-Flag TRIM28 (UniProt Q13263); test: co-IP; 293T cells transfected with both partners; lysed in NETN buffer (100 mM NaCl, 20 mM Tris-Cl pH 8.0, 1 mM EDTA, 0.5% NP-40); anti-Flag (M2) overnight at 4°C, Protein G magnetic beads; immunoblot
# HA-Flag RSK1 = HA-Flag RSK1 (UniProt Q15418); test: as above
# [1] = target: T1, GST-TRIM28 fragment 1 (F1) (UniProt Q13263); test: pull-down; GST pull-down with recombinant RSK1 and GST-TRIM28 fragments (F1, F2) expressed in E. coli; immunoblot; both purified
# T1 sequence: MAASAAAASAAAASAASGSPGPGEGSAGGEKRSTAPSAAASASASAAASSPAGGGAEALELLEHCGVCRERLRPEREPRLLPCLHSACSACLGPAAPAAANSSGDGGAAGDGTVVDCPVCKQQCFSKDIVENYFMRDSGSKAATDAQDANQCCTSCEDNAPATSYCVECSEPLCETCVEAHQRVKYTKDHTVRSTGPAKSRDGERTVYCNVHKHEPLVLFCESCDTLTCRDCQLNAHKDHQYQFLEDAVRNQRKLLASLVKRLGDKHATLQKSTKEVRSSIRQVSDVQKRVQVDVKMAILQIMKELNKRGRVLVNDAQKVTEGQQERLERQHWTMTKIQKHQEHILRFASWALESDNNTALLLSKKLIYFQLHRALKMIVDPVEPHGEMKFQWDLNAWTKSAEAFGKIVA
# [2] = target: T2, GST-TRIM28 fragment 2 (F2) (UniProt Q13263); test: as above
# T2 sequence: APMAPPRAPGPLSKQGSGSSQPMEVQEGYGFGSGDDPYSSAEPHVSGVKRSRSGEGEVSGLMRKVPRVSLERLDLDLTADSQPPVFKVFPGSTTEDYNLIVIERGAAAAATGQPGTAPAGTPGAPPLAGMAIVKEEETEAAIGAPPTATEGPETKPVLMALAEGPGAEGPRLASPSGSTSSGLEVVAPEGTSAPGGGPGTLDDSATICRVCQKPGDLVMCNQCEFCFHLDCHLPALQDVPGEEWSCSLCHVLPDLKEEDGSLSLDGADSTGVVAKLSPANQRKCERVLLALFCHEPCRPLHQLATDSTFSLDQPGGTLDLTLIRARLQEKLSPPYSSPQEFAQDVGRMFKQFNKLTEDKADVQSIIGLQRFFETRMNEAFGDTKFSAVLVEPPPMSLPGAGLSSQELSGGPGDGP
substance,measurement,setting,value
MYC-RSK1 (from UniProt Q15418 1-735) (enzyme),binding,HA-Flag TRIM28,binds
MYC-TRIM28 (from UniProt Q13263 1-835),binding,HA-Flag RSK1,binds
recombinant RSK1 (from UniProt Q15418 1-735) (enzyme),binding,[1],binds
same,binding,[2],binds
